Data: the supplement of paper PMC10849652
Some of the results follow.

Chains of the proteins cited; added tags and fusions are not shown. Lines headed by an entry give the natural chain unless they say otherwise; changes in a name come on top.
UniProt Q86Y39, whole entry, looked up: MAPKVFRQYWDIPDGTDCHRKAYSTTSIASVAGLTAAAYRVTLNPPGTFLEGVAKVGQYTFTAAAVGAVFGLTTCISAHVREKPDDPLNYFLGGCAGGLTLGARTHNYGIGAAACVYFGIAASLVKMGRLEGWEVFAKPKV
UniProt O43776: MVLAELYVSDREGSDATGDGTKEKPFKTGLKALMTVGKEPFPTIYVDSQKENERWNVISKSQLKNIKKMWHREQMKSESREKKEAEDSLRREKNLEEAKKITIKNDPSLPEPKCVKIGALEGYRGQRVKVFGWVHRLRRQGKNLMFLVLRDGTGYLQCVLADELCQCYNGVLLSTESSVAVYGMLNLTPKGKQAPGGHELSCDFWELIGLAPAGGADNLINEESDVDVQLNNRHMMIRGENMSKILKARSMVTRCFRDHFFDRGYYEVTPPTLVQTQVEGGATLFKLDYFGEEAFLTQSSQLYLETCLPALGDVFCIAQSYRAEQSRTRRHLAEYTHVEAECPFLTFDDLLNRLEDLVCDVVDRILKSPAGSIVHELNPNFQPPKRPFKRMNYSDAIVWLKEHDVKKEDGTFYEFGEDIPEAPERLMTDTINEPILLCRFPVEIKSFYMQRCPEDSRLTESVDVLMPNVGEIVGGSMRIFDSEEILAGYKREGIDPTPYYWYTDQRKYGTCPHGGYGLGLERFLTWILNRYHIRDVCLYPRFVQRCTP
UniProt Q99733: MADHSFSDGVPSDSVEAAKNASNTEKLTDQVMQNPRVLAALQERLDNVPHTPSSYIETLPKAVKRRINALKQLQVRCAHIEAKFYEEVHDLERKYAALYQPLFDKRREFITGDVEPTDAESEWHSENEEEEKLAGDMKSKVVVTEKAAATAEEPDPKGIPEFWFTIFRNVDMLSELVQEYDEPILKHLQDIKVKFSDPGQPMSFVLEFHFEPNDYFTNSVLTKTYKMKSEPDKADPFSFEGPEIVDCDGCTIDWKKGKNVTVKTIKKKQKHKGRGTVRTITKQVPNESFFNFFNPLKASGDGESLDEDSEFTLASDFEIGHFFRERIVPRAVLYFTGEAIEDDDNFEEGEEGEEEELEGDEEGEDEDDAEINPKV
UniProt O76041: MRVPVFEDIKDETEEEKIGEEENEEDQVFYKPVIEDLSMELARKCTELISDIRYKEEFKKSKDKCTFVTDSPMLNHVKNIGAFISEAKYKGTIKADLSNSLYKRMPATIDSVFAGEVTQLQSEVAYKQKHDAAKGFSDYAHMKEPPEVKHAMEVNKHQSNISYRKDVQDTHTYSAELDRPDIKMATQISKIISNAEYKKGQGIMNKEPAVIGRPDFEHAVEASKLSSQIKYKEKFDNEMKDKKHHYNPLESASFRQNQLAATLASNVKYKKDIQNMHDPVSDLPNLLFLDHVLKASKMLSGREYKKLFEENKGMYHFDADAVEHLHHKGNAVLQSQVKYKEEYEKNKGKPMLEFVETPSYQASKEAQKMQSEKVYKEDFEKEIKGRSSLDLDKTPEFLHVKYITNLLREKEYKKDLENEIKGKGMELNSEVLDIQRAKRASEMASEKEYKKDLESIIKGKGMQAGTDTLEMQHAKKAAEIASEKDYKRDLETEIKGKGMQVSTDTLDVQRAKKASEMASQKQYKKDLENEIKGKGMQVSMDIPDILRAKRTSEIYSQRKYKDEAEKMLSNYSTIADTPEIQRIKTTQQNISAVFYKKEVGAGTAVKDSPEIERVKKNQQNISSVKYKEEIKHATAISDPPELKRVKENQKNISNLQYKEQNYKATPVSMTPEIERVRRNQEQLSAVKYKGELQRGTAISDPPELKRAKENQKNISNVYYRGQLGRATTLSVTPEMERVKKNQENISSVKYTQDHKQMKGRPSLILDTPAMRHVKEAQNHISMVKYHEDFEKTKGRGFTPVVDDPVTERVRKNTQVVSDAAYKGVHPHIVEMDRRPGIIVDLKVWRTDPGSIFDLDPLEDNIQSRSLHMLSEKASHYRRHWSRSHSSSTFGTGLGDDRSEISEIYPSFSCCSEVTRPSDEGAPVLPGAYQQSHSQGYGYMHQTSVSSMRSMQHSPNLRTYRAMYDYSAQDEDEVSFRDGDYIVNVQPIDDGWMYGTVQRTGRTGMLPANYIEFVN
UniProt P51970, whole entry, looked up: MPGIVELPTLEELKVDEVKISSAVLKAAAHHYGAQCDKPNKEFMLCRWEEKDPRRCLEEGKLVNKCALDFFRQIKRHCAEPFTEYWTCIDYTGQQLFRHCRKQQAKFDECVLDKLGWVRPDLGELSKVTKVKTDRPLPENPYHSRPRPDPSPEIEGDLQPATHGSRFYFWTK
UniProt O95544: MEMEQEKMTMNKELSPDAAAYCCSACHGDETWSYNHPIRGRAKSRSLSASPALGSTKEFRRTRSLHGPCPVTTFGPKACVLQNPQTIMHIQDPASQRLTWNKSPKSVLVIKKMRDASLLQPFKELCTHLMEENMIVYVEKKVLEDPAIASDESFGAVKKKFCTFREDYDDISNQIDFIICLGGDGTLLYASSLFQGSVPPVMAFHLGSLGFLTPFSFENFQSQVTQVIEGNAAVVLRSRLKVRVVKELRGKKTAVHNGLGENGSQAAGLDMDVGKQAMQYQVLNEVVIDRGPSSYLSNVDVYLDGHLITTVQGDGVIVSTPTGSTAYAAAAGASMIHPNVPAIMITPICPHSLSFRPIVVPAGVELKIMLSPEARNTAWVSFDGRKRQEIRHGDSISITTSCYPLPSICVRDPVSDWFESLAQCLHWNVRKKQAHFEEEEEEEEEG
UniProt Q9BSU3: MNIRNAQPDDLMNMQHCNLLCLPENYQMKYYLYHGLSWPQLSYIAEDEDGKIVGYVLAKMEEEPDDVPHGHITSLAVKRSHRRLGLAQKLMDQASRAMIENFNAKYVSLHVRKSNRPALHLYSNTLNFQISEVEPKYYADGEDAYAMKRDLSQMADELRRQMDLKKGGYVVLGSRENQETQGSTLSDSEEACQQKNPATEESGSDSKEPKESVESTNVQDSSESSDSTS
UniProt Q5VZE5: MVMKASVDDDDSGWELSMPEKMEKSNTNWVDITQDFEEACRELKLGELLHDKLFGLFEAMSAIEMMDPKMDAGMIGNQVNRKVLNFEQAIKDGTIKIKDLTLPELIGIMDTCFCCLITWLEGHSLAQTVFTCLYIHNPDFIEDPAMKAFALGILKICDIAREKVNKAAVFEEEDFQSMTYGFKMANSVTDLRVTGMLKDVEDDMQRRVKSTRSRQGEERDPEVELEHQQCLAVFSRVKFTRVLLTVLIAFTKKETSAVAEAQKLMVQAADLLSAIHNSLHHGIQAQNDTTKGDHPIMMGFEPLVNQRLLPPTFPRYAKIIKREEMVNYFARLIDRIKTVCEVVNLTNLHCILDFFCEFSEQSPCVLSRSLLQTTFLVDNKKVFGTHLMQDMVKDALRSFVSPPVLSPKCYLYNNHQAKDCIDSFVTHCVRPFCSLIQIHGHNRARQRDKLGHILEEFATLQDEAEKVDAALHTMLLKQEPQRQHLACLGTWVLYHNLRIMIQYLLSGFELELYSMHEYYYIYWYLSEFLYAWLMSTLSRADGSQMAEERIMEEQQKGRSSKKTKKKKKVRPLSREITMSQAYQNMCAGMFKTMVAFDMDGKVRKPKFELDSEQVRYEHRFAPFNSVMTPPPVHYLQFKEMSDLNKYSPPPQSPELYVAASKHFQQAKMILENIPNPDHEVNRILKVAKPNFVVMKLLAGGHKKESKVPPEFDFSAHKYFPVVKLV
UniProt O95169, whole entry, looked up: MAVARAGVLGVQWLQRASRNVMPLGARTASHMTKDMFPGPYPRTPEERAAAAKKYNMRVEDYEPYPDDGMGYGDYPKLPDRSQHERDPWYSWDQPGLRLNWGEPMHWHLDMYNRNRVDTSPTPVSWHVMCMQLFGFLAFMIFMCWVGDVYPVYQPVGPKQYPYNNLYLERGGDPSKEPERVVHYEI
UniProt P19404, whole entry, looked up: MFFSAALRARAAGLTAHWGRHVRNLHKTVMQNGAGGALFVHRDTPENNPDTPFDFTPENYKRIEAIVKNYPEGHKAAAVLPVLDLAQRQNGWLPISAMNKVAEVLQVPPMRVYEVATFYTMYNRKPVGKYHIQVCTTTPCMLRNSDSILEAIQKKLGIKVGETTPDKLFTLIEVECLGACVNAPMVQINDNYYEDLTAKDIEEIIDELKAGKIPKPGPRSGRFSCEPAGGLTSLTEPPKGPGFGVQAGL
UniProt Q9P0J0, whole entry, looked up: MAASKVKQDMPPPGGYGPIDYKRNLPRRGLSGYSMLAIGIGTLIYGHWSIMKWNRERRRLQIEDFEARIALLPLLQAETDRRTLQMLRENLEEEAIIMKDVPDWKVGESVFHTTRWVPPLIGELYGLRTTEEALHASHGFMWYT
UniProt A2RRP1: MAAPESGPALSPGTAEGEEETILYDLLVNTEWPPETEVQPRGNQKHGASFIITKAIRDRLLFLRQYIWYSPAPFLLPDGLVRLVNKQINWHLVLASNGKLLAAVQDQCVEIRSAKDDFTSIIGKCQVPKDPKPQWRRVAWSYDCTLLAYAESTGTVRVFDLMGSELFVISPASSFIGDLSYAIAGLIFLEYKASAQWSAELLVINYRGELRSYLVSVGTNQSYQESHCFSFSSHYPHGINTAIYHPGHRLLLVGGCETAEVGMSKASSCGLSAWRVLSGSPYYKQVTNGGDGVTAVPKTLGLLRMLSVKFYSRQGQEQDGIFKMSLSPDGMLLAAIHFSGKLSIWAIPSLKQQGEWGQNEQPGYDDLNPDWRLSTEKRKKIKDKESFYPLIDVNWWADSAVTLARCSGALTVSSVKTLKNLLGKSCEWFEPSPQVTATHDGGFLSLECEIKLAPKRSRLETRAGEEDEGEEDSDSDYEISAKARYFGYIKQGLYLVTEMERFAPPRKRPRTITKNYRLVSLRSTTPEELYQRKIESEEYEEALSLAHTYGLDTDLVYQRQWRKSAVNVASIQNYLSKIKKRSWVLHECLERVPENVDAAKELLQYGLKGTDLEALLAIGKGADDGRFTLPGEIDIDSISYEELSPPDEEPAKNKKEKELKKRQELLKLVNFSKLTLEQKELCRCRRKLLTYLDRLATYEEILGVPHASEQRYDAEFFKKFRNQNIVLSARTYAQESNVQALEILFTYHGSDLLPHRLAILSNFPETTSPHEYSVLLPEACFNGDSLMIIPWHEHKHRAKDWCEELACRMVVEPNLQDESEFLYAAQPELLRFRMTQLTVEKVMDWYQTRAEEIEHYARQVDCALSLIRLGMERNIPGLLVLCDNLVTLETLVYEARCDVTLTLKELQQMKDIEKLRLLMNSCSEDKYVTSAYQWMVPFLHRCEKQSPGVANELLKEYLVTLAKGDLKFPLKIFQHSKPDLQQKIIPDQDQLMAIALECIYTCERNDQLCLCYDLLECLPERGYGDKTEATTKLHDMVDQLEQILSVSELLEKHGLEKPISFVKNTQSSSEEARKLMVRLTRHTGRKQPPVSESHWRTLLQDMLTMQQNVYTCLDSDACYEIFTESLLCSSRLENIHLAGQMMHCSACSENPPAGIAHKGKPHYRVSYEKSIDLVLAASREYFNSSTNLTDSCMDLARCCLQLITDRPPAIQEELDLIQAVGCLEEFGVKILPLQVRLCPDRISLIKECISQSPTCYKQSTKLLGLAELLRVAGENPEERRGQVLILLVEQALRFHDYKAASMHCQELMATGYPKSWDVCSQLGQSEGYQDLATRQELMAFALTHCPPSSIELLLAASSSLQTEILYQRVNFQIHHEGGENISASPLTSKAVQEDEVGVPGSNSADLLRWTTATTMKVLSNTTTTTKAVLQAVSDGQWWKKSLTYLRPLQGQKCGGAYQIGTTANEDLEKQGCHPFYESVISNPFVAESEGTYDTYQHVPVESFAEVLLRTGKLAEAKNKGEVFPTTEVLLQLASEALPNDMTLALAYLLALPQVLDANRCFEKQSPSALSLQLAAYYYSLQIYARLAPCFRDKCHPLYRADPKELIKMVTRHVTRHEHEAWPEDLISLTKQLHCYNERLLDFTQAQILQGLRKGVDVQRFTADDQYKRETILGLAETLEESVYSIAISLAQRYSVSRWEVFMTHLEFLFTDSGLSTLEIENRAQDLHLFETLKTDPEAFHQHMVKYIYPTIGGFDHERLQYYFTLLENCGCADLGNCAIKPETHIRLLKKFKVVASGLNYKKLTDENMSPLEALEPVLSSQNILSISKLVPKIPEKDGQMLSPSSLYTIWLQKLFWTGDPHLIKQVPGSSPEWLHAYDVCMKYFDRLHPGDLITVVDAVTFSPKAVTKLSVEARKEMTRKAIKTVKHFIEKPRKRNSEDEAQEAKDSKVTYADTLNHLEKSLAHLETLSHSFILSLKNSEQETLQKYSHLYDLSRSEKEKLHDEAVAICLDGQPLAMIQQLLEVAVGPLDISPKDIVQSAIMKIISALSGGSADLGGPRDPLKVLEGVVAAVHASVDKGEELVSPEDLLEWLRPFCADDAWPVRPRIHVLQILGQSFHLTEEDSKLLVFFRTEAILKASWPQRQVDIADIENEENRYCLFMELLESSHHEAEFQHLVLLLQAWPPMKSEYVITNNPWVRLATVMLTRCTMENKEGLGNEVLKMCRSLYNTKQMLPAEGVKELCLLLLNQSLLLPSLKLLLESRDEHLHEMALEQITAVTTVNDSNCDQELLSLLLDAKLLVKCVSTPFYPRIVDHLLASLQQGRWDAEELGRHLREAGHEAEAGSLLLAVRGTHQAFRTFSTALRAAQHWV

What was measured:
Assay in all cases: log2 fold change, soluble protein after heating vs DMSO (PISA); higher = thermal stabilisation; K562 cells, 10 uM, 30 min; active = over 0.2 and 3.5 SD of the protein, either way, in both replicates (recomputed)
[1] = compound: CC1=C(C=C(C=C1)NC(=O)C2=CC(=CC=C2)C(C)(C)C#N)NC3=CC4=C(C=C3)N=CN(C4=O)C
In short: (§1)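 K562 cells at 2×10^6 cells/mL were given 10 μM compound for 30 min. Aliquots then went through 3 min of heating across 48°C-58°C, were pooled, and were extracted in PBS with 0.5% NP-40 at 4°C, and the supernatant after 21,000xg for 90 min was quantified by TMTpro 16plex LC-MS/MS with channel sums equalised. Thermal stability relative to control samples, from duplicates, is given as log2 fold change.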

[2] = compound: CC1=C(C=C(C=C1)NC(=O)C2=CC(=CC=C2)N(C)C)NC(=O)C3=CC=C(C=C3)O
In short: as §1

[3] = compound: CC1=CC=C(C=C1)SC2=C3C=C(SC3=CN=C2)C(=O)N
In short: as §1

[4] = compound: CC1=NC(=CC=C1)C2=C(N=C(N2)C(C)(C)C)C3=CC4=NC=CN=C4C=C3
In short: as §1

Nexturastat A = compound: CCCCN(Cc1ccc(C(=O)NO)cc1)C(=O)Nc1ccccc1 [Nexturastat A]
In short: as §1

vemurafenib = compound: CCCS(=O)(=O)Nc1ccc(F)c(C(=O)c2c[nH]c3ncc(-c4ccc(Cl)cc4)cc23)c1F [vemurafenib]
In short: as §1

[5] = compound: CCCS(=O)(=O)Nc1ccc(F)c(C(=O)c2c[nH]c3ncc(Cl)cc23)c1F
In short: as §1

[6] = compound: CCCc1cc(C)[nH]c(=O)c1CNC(=O)c1cc(-c2ccnc(N3CCN(C)CC3)c2)cc2c1cnn2C(C)C
In short: as §1

givinostat = compound: CCN(CC)Cc1ccc2cc(COC(=O)Nc3ccc(C(=O)NO)cc3)ccc2c1 [givinostat]
In short: as §1

barasertib = compound: CCN(CCCOc1ccc2c(Nc3cc(CC(=O)Nc4cccc(F)c4)[nH]n3)ncnc2c1)CCOP(=O)(O)O [barasertib]
In short: as §1

Measured: log2 fold change

NDUFAF4 (UniProt Q9P032)
inactive: [1] 0.024 | [2] 0.011 | [3] 0.059 | [4] 0.052 | Nexturastat A -0.059 | vemurafenib 0.01 | [5] 0.065 | [6] -0.037 | givinostat 0.011 | barasertib 0.018

NDUFA11 (UniProt Q86Y39)
inactive: [1] -0.006 | [2] 0.021 | [3] 0.075 | [4] 0.008 | Nexturastat A -0.048 | vemurafenib -0.025 | [5] 0 | [6] -0.109 | givinostat 0.062 | barasertib -0.031

NCSTN (UniProt Q92542)
inactive: [1] 0.027 | [2] 0.065 | [3] -0.017 | [4] 0.038 | Nexturastat A -0.019 | vemurafenib -0.008 | [5] 0.018 | [6] -0.094 | givinostat 0.056 | barasertib 0.029

NAP1L5 (UniProt Q96NT1)
inactive: [1] -0.05 | [2] 0.062 | [3] 0.062 | [4] 0.081 | Nexturastat A -0.006 | vemurafenib 0.099 | [5] -0.043 | [6] -0.027 | givinostat 0.017 | barasertib 0.044

NA, A0A096LPI6
inactive: [1] -0.018 | [2] 0.032 | [3] 0.051 | [4] 0.039 | Nexturastat A -0.093 | vemurafenib 0.008 | [5] 0.052 | [6] -0.033 | givinostat -0.055 | barasertib -0.003

NARS1 (UniProt O43776)
inactive: [1] 0.005 | [2] 0.005 | [3] -0.056 | [4] 0.004 | Nexturastat A -0.023 | vemurafenib -0.025 | [5] -0.049 | [6] -0.019 | givinostat -0.038 | barasertib -0.006

NASP (UniProt P49321)
inactive: [1] 0.012 | [2] -0.033 | [3] 0 | [4] 0.009 | Nexturastat A -0.058 | vemurafenib 0.037 | [5] 0.038 | [6] -0.006 | givinostat 0.001 | barasertib 0.027

NDUFV1 (UniProt P49821)
inactive: [1] -0.013 | [2] 0 | [3] -0.016 | [4] 0 | Nexturastat A 0.003 | vemurafenib -0.006 | [5] -0.001 | [6] -0.025 | givinostat -0.096 | barasertib 0.019

NAP1L4 isoform 2 (UniProt Q99733)
inactive: [1] -0.007 | [2] -0.009 | [3] -0.034 | [4] 0 | Nexturastat A -0.018 | vemurafenib 0.015 | [5] 0.065 | [6] -0.004 | givinostat -0.009 | barasertib 0.023

NAGK isoform 2 (UniProt Q9UJ70)
inactive: [1] 0.037 | [2] 0.027 | [3] 0.005 | [4] -0.011 | Nexturastat A 0.001 | vemurafenib -0.049 | [5] -0.004 | [6] -0.021 | givinostat 0.01 | barasertib -0.022

NEBL isoform 2 (UniProt O76041)
inactive: [1] -0.032 | [2] 0.008 | [3] 0.02 | [4] -0.011 | Nexturastat A -0.002 | vemurafenib -0.093 | [5] -0.007 | [6] -0.022 | givinostat -0.078 | barasertib 0.014

NDUFB10 (UniProt O96000)
inactive: [1] -0.093 | [2] -0.008 | [3] 0.001 | [4] 0.05 | Nexturastat A -0.002 | vemurafenib -0.019 | [5] 0 | [6] -0.126 | givinostat -0.023 | barasertib 0.02

NDUFA8 (UniProt P51970)
inactive: [1] -0.008 | [2] 0.033 | [3] 0.158 | [4] 0.027 | Nexturastat A -0.04 | vemurafenib -0.015 | [5] -0.008 | [6] -0.08 | givinostat -0.05 | barasertib 0.022

NADK (UniProt O95544)
inactive: [1] -0.013 | [2] -0.014 | [3] 0.01 | [4] 0.009 | Nexturastat A 0.038 | vemurafenib -0.065 | [5] -0.036 | [6] -0.052 | givinostat -0.003 | barasertib 0.007

NAA11 (UniProt Q9BSU3)
inactive: [1] -0.375 | [2] 0.006 | [3] 0.06 | [4] 0.021 | Nexturastat A -0.016 | vemurafenib 0.145 | [5] -0.067 | [6] 0.047 | givinostat 0 | barasertib -0.027

NAA35 (UniProt Q5VZE5)
inactive: [1] -0.004 | [2] 0.005 | [3] -0.028 | [4] 0.022 | Nexturastat A 0.019 | vemurafenib 0.042 | [5] 0.04 | [6] 0.046 | givinostat 0.061 | barasertib 0.019

NDUFS6 (UniProt O75380)
inactive: [1] 0.002 | [2] 0.021 | [3] -0.039 | [4] -0.109 | Nexturastat A -0.033 | vemurafenib -0.054 | [5] -0.038 | [6] -0.049 | givinostat -0.152 | barasertib -0.09

NAA30 (UniProt Q147X3)
inactive: [1] 0.081 | [2] 0.01 | [3] 0.009 | [4] 0.03 | Nexturastat A -0.002 | vemurafenib 0.035 | [5] 0.003 | [6] -0.022 | givinostat 0.035 | barasertib 0.084

2 neighbouring entries from above, quoted:
NDUFA8 (UniProt P51970)
inactive: [1] -0.008 | [2] 0.033 | [3] 0.158 | [4] 0.027 | Nexturastat A -0.04 | vemurafenib -0.015 | [5] -0.008 | [6] -0.08 | givinostat -0.05 | barasertib 0.022

NADK (UniProt O95544)
inactive: [1] -0.013 | [2] -0.014 | [3] 0.01 | [4] 0.009 | Nexturastat A 0.038 | vemurafenib -0.065 | [5] -0.036 | [6] -0.052 | givinostat -0.003 | barasertib 0.007

(further entries)

NDUFAF7 (UniProt Q7L592)
inactive: [1] 0.085 | [2] 0 | [3] 0.018 | [4] 0.015 | Nexturastat A -0.084 | vemurafenib 0.052 | [5] -0.016 | [6] 0.081 | givinostat 0.132 | barasertib 0.046

NDUFS5 (UniProt O43920)
inactive: [1] -0.047 | [2] -0.011 | [3] 0.11 | [4] -0.01 | Nexturastat A -0.044 | vemurafenib -0.05 | [5] -0.062 | [6] -0.031 | givinostat 0.055 | barasertib -0.031

NDUFB8 (UniProt O95169)
inactive: [1] 0.01 | [2] -0.068 | [3] 0.023 | [4] 0.024 | Nexturastat A 0.045 | vemurafenib 0.099 | [5] -0.04 | [6] -0.025 | givinostat -0.048 | barasertib 0.023

NDUFV2 (UniProt P19404)
inactive: [1] 0.026 | [2] 0.016 | [3] -0.013 | [4] -0.025 | Nexturastat A 0.037 | vemurafenib 0.001 | [5] -0.043 | [6] 0.001 | givinostat -0.068 | barasertib -0.016

NDUFA13 (UniProt Q9P0J0)
inactive: [1] 0.05 | [2] -0.027 | [3] 0.053 | [4] 0.068 | Nexturastat A -0.047 | vemurafenib -0.081 | [5] 0.058 | [6] -0.007 | givinostat 0.006 | barasertib -0.006

NCBP1 (UniProt Q09161)
inactive: [1] 0.019 | [2] 0.021 | [3] 0.002 | [4] 0.029 | Nexturastat A -0.049 | vemurafenib 0.014 | [5] 0.04 | [6] -0.017 | givinostat -0.017 | barasertib 0.022

NAGLU (UniProt P54802)
inactive: [1] 0.024 | [2] 0.015 | [3] 0.031 | [4] 0.019 | Nexturastat A 0.024 | vemurafenib -0.038 | [5] 0.047 | [6] -0.022 | givinostat 0.018 | barasertib -0.038

NDC1 (UniProt Q9BTX1)
inactive: [1] -0.035 | [2] -0.017 | [3] 0.011 | [4] -0.002 | Nexturastat A -0.005 | vemurafenib 0.009 | [5] 0.058 | [6] -0.04 | givinostat 0.014 | barasertib 0.028

NBAS (UniProt A2RRP1)
inactive: [1] -0.036 | [2] 0.004 | [3] -0.072 | [4] -0.119 | Nexturastat A 0.133 | vemurafenib 0.054 | [5] -0.016 | [6] 0.085 | givinostat 0.23 | barasertib 0.004

NCOA7 (UniProt Q8NI08)
inactive: [1] 0.068 | [2] -0.045 | [3] 0.015 | [4] 0.016 | Nexturastat A 0.012 | vemurafenib 0.008 | [5] -0.005 | [6] 0.024 | givinostat 0.045 | barasertib 0.009

NEBL (UniProt O76041)
inactive: [1] -0.097 | [2] 0.055 | [3] 0.016 | [4] -0.05 | Nexturastat A -0.024 | vemurafenib -0.04 | [5] -0.13 | [6] 0.001 | givinostat 0.15 | barasertib 0.024

NCOR1 (UniProt O75376)
inactive: [1] -0.035 | [2] -0.075 | [3] -0.195 | [4] 0.101 | Nexturastat A -0.079 | vemurafenib 0.01 | [5] -0.149 | [6] -0.079 | givinostat 0.014 | barasertib -0.094
